Test results from PMC9723622.
No constants are given. Whether binding was seen depends on the method and setting. In cells and extracts the contact can be indirect. A yes stands for co-enrichment or nearness to the bait. Other partners may have been found.

The chains behind the UniProt entries cited, without tags or fusion partners.
UniProt P09874: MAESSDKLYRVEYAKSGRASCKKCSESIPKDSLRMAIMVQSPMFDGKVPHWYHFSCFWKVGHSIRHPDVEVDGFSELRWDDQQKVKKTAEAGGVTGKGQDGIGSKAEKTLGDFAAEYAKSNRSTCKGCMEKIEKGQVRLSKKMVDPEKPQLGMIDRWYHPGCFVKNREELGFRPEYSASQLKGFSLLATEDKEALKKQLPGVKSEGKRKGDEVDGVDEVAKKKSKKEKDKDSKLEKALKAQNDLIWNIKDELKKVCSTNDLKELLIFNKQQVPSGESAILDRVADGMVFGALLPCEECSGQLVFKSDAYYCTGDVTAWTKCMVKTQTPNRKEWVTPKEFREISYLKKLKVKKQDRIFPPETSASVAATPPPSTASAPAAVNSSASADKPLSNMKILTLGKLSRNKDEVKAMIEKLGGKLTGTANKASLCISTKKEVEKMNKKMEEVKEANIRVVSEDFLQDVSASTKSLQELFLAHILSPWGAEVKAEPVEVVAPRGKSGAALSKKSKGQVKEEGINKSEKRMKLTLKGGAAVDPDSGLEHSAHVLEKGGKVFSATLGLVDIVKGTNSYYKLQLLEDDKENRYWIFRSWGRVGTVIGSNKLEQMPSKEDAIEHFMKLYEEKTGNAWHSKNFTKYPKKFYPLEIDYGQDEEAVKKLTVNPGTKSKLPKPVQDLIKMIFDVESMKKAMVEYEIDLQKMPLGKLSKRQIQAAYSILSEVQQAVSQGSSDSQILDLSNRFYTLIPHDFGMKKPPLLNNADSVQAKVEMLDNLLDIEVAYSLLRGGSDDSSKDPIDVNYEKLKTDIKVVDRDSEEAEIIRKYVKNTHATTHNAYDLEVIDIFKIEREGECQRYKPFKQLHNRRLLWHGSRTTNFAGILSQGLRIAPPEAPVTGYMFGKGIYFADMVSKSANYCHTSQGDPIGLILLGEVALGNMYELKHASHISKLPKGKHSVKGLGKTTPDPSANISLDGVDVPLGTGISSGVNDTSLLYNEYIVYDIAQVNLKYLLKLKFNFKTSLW

B1: THRAP3 (protein, UniProt Q9Y2W1 1-955)
chain: MSKTNKSKSGSRSSRSRSASRSRSRSFSKSRSRSRSLSRSRKRRLSSRSRSRSYSPAHNRERNHPRVYQNRDFRGHNRGYRRPYYFRGRNRGFYPWGQYNRGGYGNYRSNWQNYRQAYSPRRGRSRSRSPKRRSPSPRSRSHSRNSDKSSSDRSRRSSSSRSSSNHSRVESSKRKSAKEKKSSSKDSRPSQAAGDNQGDEAKEQTFSGGTSQDTKASESSKPWPDATYGTGSASRASAVSELSPRERSPALKSPLQSVVVRRRSPRPSPVPKPSPPLSSTSQMGSTLPSGAGYQSGTHQGQFDHGSGSLSPSKKSPVGKSPPSTGSTYGSSQKEESAASGGAAYTKRYLEEQKTENGKDKEQKQTNTDKEKIKEKGSFSDTGLGDGKMKSDSFAPKTDSEKPFRGSQSPKRYKLRDDFEKKMADFHKEEMDDQDKDKAKGRKESEFDDEPKFMSKVIGANKNQEEEKSGKWEGLVYAPPGKEKQRKTEELEEESFPERSKKEDRGKRSEGGHRGFVPEKNFRVTAYKAVQEKSSSPPPRKTSESRDKLGAKGDFPTGKSSFSITREAQVNVRMDSFDEDLARPSGLLAQERKLCRDLVHSNKKEQEFRSIFQHIQSAQSQRSPSELFAQHIVTIVHHVKEHHFGSSGMTLHERFTKYLKRGTEQEAAKNKKSPEIHRRIDISPSTFRKHGLAHDEMKSPREPGYKAEGKYKDDPVDLRLDIERRKKHKERDLKRGKSRESVDSRDSSHSRERSAEKTEKTHKGSKKQKKHRRARDRSRSSSSSSQSSHSYKAEEYTEETEEREESTTGFDKSRLGTKDFVGPSERGGGRARGTFQFRARGRGWGRGNYSGNNNNNSNNDFQKRNREEEWDPEYTPKSKKYYLHDDREGEGSDKWVSRGRGRGAFPRGRGRFMFRKSSTSPKWAHDKFSGEEGEIEDDESGTENREEKDNIQPTTE
B2: KIF2C (protein, UniProt Q99661 1-725)
chain: MAMDSSLQARLFPGLAIKIQRSNGLIHSANVRTVNLEKSCVSVEWAEGGATKGKEIDFDDVAAINPELLQLLPLHPKDNLPLQENVTIQKQKRRSVNSKIPAPKESLRSRSTRMSTVSELRITAQENDMEVELPAAANSRKQFSVPPAPTRPSCPAVAEIPLRMVSEEMEEQVHSIRGSSSANPVNSVRRKSCLVKEVEKMKNKREEKKAQNSEMRMKRAQEYDSSFPNWEFARMIKEFRATLECHPLTMTDPIEEHRICVCVRKRPLNKQELAKKEIDVISIPSKCLLLVHEPKLKVDLTKYLENQAFCFDFAFDETASNEVVYRFTARPLVQTIFEGGKATCFAYGQTGSGKTHTMGGDLSGKAQNASKGIYAMASRDVFLLKNQPCYRKLGLEVYVTFFEIYNGKLFDLLNKKAKLRVLEDGKQQVQVVGLQEHLVNSADDVIKMIDMGSACRTSGQTFANSNSSRSHACFQIILRAKGRMHGKFSLVDLAGNERGADTSSADRQTRMEGAEINKSLLALKECIRALGQNKAHTPFRESKLTQVLRDSFIGENSRTCMIATISPGISSCEYTLNTLRYADRVKELSPHSGPSGEQLIQMETEEMEACSNGALIPGNLSKEEEELSSQMSSFNEAMTQIRELEEKAMEELKEIIQQGPDWLELSEMTEQPDYDLETFVNKAESALAQQAKHFSALRDVIKALRLAMQLEEQASRQISSKKRPQ
B3: KIF22 (protein, UniProt Q14807 1-665)
chain: MAAGGSTQQRRREMAAASAAAISGAGRCRLSKIGATRRPPPARVRVAVRLRPFVDGTAGASDPPCVRGMDSCSLEIANWRNHQETLKYQFDAFYGERSTQQDIYAGSVQPILRHLLEGQNASVLAYGPTGAGKTHTMLGSPEQPGVIPRALMDLLQLTREEGAEGRPWALSVTMSYLEIYQEKVLDLLDPASGDLVIREDCRGNILIPGLSQKPISSFADFERHFLPASRNRTVGATRLNQRSSRSHAVLLVKVDQRERLAPFRQREGKLYLIDLAGSEDNRRTGNKGLRLKESGAINTSLFVLGKVVDALNQGLPRVPYRDSKLTRLLQDSLGGSAHSILIANIAPERRFYLDTVSALNFAARSKEVINRPFTNESLQPHALGPVKLSQKELLGPPEAKRARGPEEEEIGSPEPMAAPASASQKLSPLQKLSSMDPAMLERLLSLDRLLASQGSQGAPLLSTPKRERMVLMKTVEEKDLEIERLKTKQKELEAKMLAQKAEEKENHCPTMLRPLSHRTVTGAKPLKKAVVMPLQLIQEQAASPNAEIHILKNKGRKRKLESLDALEPEEKAEDCWELQISPELLAHGRQKILDLLNEGSARDLRSLQRIGPKKAQLIVGWRELHGPFSQVEDLERVEGITGKQMESFLKANILGLAAGQRCGAS
B4: DIS3 (protein, UniProt Q9Y2L1 1-958)
chain: MLKSKTFLKKTRAGGVMKIVREHYLRDDIGCGAPGCAACGGAHEGPALEPQPQDPASSVCPQPHYLLPDTNVLLHQIDVLEDPAIRNVIVLQTVLQEVRNRSAPVYKRIRDVTNNQEKHFYTFTNEHHRETYVEQEQGENANDRNDRAIRVAAKWYNEHLKKMSADNQLQVIFITNDRRNKEKAIEEGIPAFTCEEYVKSLTANPELIDRLACLSEEGNEIESGKIIFSEHLPLSKLQQGIKSGTYLQGTFRASRENYLEATVWIHGDNEENKEIILQGLKHLNRAVHEDIVAVELLPKSQWVAPSSVVLHDEGQNEEDVEKEEETERMLKTAVSEKMLKPTGRVVGIIKRNWRPYCGMLSKSDIKESRRHLFTPADKRIPRIRIETRQASTLEGRRIIVAIDGWPRNSRYPNGHFVRNLGDVGEKETETEVLLLEHDVPHQPFSQAVLSFLPKMPWSITEKDMKNREDLRHLCICSVDPPGCTDIDDALHCRELENGNLEVGVHIADVSHFIRPGNALDQESARRGTTVYLCEKRIDMVPELLSSNLCSLKCDVDRLAFSCIWEMNHNAEILKTKFTKSVINSKASLTYAEAQLRIDSANMNDDITTSLRGLNKLAKILKKRRIEKGALTLSSPEVRFHMDSETHDPIDLQTKELRETNSMVEEFMLLANISVAKKIHEEFSEHALLRKHPAPPPSNYEILVKAARSRNLEIKTDTAKSLAESLDQAESPTFPYLNTLLRILATRCMMQAVYFCSGMDNDFHHYGLASPIYTHFTSPIRRYADVIVHRLLAVAIGADCTYPELTDKHKLADICKNLNFRHKMAQYAQRASVAFHTQLFFKSKGIVSEEAYILFVRKNAIVVLIPKYGLEGTVFFEEKDKPNPQLIYDDEIPSLKIEDTVFHVFDKVKVKIMLDSSNLQHQKIRMSLVEPQIPGISIPTDTSNMDLNGPKKKKMKLGK
B5: KIF23 (protein, UniProt Q02241 1-960)
chain: MKSARAKTPRKPTVKKGSQTNLKDPVGVYCRVRPLGFPDQECCIEVINNTTVQLHTPEGYRLNRNGDYKETQYSFKQVFGTHTTQKELFDVVANPLVNDLIHGKNGLLFTYGVTGSGKTHTMTGSPGEGGLLPRCLDMIFNSIGSFQAKRYVFKSNDRNSMDIQCEVDALLERQKREAMPNPKTSSSKRQVDPEFADMITVQEFCKAEEVDEDSVYGVFVSYIEIYNNYIYDLLEEVPFDPIKPKPPQSKLLREDKNHNMYVAGCTEVEVKSTEEAFEVFWRGQKKRRIANTHLNRESSRSHSVFNIKLVQAPLDADGDNVLQEKEQITISQLSLVDLAGSERTNRTRAEGNRLREAGNINQSLMTLRTCMDVLRENQMYGTNKMVPYRDSKLTHLFKNYFDGEGKVRMIVCVNPKAEDYEENLQVMRFAEVTQEVEVARPVDKAICGLTPGRRYRNQPRGPVGNEPLVTDVVLQSFPPLPSCEILDINDEQTLPRLIEALEKRHNLRQMMIDEFNKQSNAFKALLQEFDNAVLSKENHMQGKLNEKEKMISGQKLEIERLEKKNKTLEYKIEILEKTTTIYEEDKRNLQQELETQNQKLQRQFSDKRRLEARLQGMVTETTMKWEKECERRVAAKQLEMQNKLWVKDEKLKQLKAIVTEPKTEKPERPSRERDREKVTQRSVSPSPVPLSSNYIAQISNGQQLMSQPQLHRRSNSCSSISVASCISEWEQKIPTYNTPLKVTSIARRRQQEPGQSKTCIVSDRRRGMYWTEGREVVPTFRNEIEIEEDHCGRLLFQPDQNAPPIRLRHRRSRSAGDRWVDHKPASNMQTETVMQPHVPHAITVSVANEKALAKCEKYMLTHQELASDGEIETKLIKGDIYKTRGGGQSVQFTDIETLKQESPNGSRKRRSSTVAPAQPDGAESEWTDVETRCSVAVEMRAGSQLGPGYQHHAQPKRKKP
B6: AQR (protein, UniProt O60306 1-1485)
chain: MAAPAQPKKIVAPTVSQINAEFVTQLACKYWAPHIKKKSPFDIKVIEDIYEKEIVKSRFAIRKIMLLEFSQYLENYLWMNYSPEVSSKAYLMSICCMVNEKFRENVPAWEIFKKKPDHFPFFFKHILKAALAETDGEFSLHEQTVLLLFLDHCFNSLEVDLIRSQVQQLISLPMWMGLQLARLELELKKTPKLRKFWNLIKKNDEKMDPEAREQAYQERRFLSQLIQKFISVLKSVPLSEPVTMDKVHYCERFIELMIDLEALLPTRRWFNTILDDSHLLVHCYLSNLVRREEDGHLFSQLLDMLKFYTGFEINDQTGNALTENEMTTIHYDRITSLQRAAFAHFPELYDFALSNVAEVDTRESLVKFFGPLSSNTLHQVASYLCLLPTLPKNEDTTFDKEFLLELLVSRHERRISQIQQLNQMPLYPTEKIIWDENIVPTEYYSGEGCLALPKLNLQFLTLHDYLLRNFNLFRLESTYEIRQDIEDSVSRMKPWQSEYGGVVFGGWARMAQPIVAFTVVEVAKPNIGENWPTRVRADVTINLNVRDHIKDEWEGLRKHDVCFLITVRPTKPYGTKFDRRRPFIEQVGLVYVRGCEIQGMLDDKGRVIEDGPEPRPNLRGESRTFRVFLDPNQYQQDMTNTIQNGAEDVYETFNIIMRRKPKENNFKAVLETIRNLMNTDCVVPDWLHDIILGYGDPSSAHYSKMPNQIATLDFNDTFLSIEHLKASFPGHNVKVTVEDPALQIPPFRITFPVRSGKGKKRKDADVEDEDTEEAKTLIVEPHVIPNRGPYPYNQPKRNTIQFTHTQIEAIRAGMQPGLTMVVGPPGTGKTDVAVQIISNIYHNFPEQRTLIVTHSNQALNQLFEKIMALDIDERHLLRLGHGEEELETEKDFSRYGRVNYVLARRIELLEEVKRLQKSLGVPGDASYTCETAGYFFLYQVMSRWEEYISKVKNKGSTLPDVTEVSTFFPFHEYFANAPQPIFKGRSYEEDMEIAEGCFRHIKKIFTQLEEFRASELLRSGLDRSKYLLVKEAKIIAMTCTHAALKRHDLVKLGFKYDNILMEEAAQILEIETFIPLLLQNPQDGFSRLKRWIMIGDHHQLPPVIKNMAFQKYSNMEQSLFTRFVRVGVPTVDLDAQGRARASLCNLYNWRYKNLGNLPHVQLLPEFSTANAGLLYDFQLINVEDFQGVGESEPNPYFYQNLGEAEYVVALFMYMCLLGYPADKISILTTYNGQKHLIRDIINRRCGNNPLIGRPNKVTTVDRFQGQQNDYILLSLVRTRAVGHLRDVRRLVVAMSRARLGLYIFARVSLFQNCFELTPAFSQLTARPLHLHIIPTEPFPTTRKNGERPSHEVQIIKNMPQMANFVYNMYMHLIQTTHHYHQTLLQLPPAMVEEGEEVQNQETELETEEEAMTVQADIIPSPTDTSCRQETPAFQTDTTPSETGATSTPEAIPALSETTPTVVGAVSAPAEANTPQDATSAPEETK

Biological target: full-length PARP1 tagged on the N-terminus with APEX2 (expressed in U2OS cells) (human) (UniProt P09874)
Test: proximity labelling; APEX2-PARP1 in SILAC-labelled U2OS cells; 500 uM biotin phenol 2 h, 1 mM H2O2 2 min, against no H2O2; nuclear extract, NeutrAvidin pull-down, LC-MS/MS; FDR < 1%

binding, binds:
B1, B2, B3, B4, B5, B6
